The values below are quoted from earlier work in paper PMC12299168 (Pharmaceutics, 2025).

The conditions of this data set: oral administration, children aged 6–11 years; cited from earlier work.

In the case of `O=C(O)COCCN1CCN([C@H](c2ccccc2)c2ccc(Cl)cc2)CC1` [LCZ, Levocetirizine], the Cmax – broadly, the peak of the concentration-time curve – is listed as 450 ± 0.1 ng/mL.
